{"source": "patent US6942979B1", "about": "“Method for screening substances capable of modulating the activity of a TRAAK potassium channel” (Centre National de la Recherche Scientifique-CNRS, priority 1998, dated 2005)", "biological_target": "T1, TRAAK channel (Mus musculus, UniProt O88454)", "T1 construct": "an open reading phase of 1197 nucleotides coding for a polypeptide of 398 residues; expressed in transfected cells; host or cells: COS cells (transient)", "T1 sequence (O88454 1-398)": "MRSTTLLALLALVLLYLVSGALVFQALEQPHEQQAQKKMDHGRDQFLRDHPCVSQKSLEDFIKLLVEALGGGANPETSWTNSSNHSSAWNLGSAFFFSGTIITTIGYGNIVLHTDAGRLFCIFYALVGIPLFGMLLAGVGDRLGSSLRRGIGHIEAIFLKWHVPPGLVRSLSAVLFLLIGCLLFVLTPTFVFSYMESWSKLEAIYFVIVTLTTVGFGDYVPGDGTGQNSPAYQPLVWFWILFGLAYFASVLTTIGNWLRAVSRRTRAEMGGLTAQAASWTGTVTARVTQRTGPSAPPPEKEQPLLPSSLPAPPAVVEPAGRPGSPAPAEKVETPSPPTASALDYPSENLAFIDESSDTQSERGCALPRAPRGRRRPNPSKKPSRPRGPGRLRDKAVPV", "assay": "TRAAK currents in transfected COS cells, imposed voltage technique", "type": "cell-based", "details": "concentration of 10 μM", "note": "At least one structure is not confirmed: it was looked up by name or label, or the drawing left a doubt."}
{"smiles": "CC/C=C\\C/C=C\\C/C=C\\C/C=C\\C/C=C\\CCCC(=O)O", "note": "[eicosapentaenoic, eicosapentaenoic acid]", "values": [{"measurement": "activation of the TRAAK channel by fatty acids and derivatives", "result": "activation"}]}
